The target in assay [1] is PIAS2 beta isoform (PIAS2b), endogenous (human (endogenous in 8305C)) (UniProt O75928). The experiment in a line: co-IP; endogenous proteins in 8305C extracts synchronized at mitosis (DT/R-6 h; for TUBB3 also DT/R-0 h), antibody overnight, protein G-Sepharose, 5 washes with HNTG buffer, western blot. A general note: A western blot detects proteins with antibodies after separation by electrophoresis.

Chains of the proteins cited; added tags and fusions are not shown. Lines headed by an entry give the natural chain unless they say otherwise; changes in a name come on top.
UniProt O75928: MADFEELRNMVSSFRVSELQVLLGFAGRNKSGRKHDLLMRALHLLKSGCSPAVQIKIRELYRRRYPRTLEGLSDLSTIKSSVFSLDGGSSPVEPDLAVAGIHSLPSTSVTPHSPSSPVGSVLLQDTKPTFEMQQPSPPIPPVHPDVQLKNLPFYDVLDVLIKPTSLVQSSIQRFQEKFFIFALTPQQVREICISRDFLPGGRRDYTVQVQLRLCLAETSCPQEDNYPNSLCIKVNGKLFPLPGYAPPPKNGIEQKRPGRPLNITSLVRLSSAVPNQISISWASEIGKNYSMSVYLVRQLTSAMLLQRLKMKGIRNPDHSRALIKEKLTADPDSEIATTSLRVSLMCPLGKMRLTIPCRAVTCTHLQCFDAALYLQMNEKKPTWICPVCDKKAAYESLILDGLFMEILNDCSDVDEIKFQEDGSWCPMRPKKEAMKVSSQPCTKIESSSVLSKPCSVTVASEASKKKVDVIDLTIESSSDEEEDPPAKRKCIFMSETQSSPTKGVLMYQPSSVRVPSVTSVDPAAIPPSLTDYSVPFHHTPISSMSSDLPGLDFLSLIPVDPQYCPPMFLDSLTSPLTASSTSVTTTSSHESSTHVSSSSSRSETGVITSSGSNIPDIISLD
UniProt P23258: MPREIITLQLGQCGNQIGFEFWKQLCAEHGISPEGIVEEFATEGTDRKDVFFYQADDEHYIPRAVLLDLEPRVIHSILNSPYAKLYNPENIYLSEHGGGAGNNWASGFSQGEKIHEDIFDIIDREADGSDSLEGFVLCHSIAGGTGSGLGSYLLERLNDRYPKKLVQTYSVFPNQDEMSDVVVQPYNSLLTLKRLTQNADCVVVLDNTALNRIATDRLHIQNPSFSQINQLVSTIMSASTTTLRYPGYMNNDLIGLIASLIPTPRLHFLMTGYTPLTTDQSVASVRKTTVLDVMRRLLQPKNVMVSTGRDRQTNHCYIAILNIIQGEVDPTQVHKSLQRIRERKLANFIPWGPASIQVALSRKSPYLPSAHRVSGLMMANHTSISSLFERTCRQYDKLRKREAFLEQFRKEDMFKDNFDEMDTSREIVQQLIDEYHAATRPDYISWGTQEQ

The target in the next assay is EGFP-hPIAS2b (human) (UniProt O75928). Nature of the assay: pull-down; GFP-Trap beads with 2 mg lysate of 8305C cells transfected with EGFP constructs, SUMO-lysis buffer with N-ethylmaleimide (non-denaturing), 4 °C overnight, western blot; asynchronous, DT/R-0 h and DT/R-6 h cells.

No constants are given. Whether binding was seen depends on the method and setting. Binding seen in cells or lysates may run through a third protein. Binding can be weak; no strength is given.

As to “gamma tubulin, endogenous (from UniProt P23258)”, the binding result (in assay [1]; with EGFP-hPIAS2b (human)) was “binds” in each case.

Source of the values: PMC11094195.
